This is an account of results in PubChem BioAssay AID1508600 (Functional Genomics Laboratory (NCATS/FGL), 2020).

Among all 53,000 sequences or so, about 3,700 (7%) were called active.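 Rule for the calls: active = gene knockdowns whose robust z-score for IL-1 alpha signal is at least 2 or at most -2, so actives lie on both sides; inactive = the rest.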 The list shows a part of the results.

This assay can be described thus: Components of the Cytosolic LPS Sensing Pathway: Gene Identification via Genome-wide siRNA Screen.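 Note: robust z of the log signal after scaling to non-targeting control siRNA wells of the plate.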 The conditions noted are these: RAW264.7 macrophages, IL-1a HTRF, actives lie on both sides, screened at 100 nM (by protocol), cells primed 5 h with Pam3CSK4 first. In short, it runs like this:
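RAW264.7; siRNA 100 nM final, RNAiMAX, 48h 37 degrees C; Pam3CSK4 5 h; LipidA + TransIT-TKO 24 h; IL-1a HTRF; CellTiter-Glo viability; robust z vs negative-control median.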
As to GCUAAGGACUUUUGUUGACTT against G3bp1, the z-score was inactive: 1.2.
Then CCACAUACUCUAAUGAAGUTT against Casp1, with inactive: 0.176.
GCUUCAUAUUGCUAGGAAATT against Chrd: the z-score is inactive: -1.11.
In the case of GGUGUCAGAGGUAUUUUCATT against Bik it was inactive: -0.0455; in that of GGAUUCGAGCAGUUAGUGATT against Ikbkg, inactive: -1.16; in that of GGUGACAUAUUUGAAGUGGTT against Dmwd, inactive: -0.000303.
In the case of GCGUAUUGGGCAGAUCAAATT against Slit1 it was inactive: 1.36.
For CCUUAUACGAAUGCCAUUCTT against Eed, the z-score was inactive: -0.266.
Then CCGUCAAUCUUUAUACCACTT against Frzb, with inactive: -0.262; and GGAAGGAUGAUUUUCAGAUTT against Mcf2, with inactive: 0.952.
Then CGAUGAACACACGUCUUAUTT against Dtl, with active: 2.05; and GGAGGUUUUUUUGUUUUGUTT against Serpinb13, with inactive: -0.614; and CGUAAGAUCAACGAGAGAUTT against Ncaph2, with inactive: -0.756.
On to GGCUAUGGCAAGCUAAGCATT against Pex5l, for which the z-score was inactive: -0.505.
CUUACCACCCUGAGUUUCATT against Olfr1066: the z-score was active: -3.2.
Then GGAAUCUGCUGAGGUUUAUTT against Cidea, with active: 4.08.
For the sequence GGACAUGACCUUAUUUGGATT against F2rl3, the z-score is inactive: -1.19.
With GCUUGUCUACUAUUUCACATT against Catsperg2, the z-score is inactive: 0.575.
For the sequence CGAGGCUGAAAGAUUGUAUTT against Rwdd2b, the z-score was inactive: -0.126.
Consider GCAACUAUACUGGACAAUUTT against Olfr328, for which the z-score was inactive: -1.19.
GUUCGUGCGGGACAUGAUCTT against Rpl36: the z-score is inactive: -0.481.
Take GGCGAGCUUAUCCAUGAUUTT against Eif3m: the z-score is inactive: 0.637.
For GCAAGACAAGUUCUACGAUTT against Csad, the z-score is inactive: 1.83.
For the sequence CCUUUUAAGUUCCUCCCACTT against Pdxp, the z-score was inactive: 1.52.
As for GGACUACAGGUAUCGUGAUTT against Actbl2, the z-score is inactive: -0.138.
Turning to GGAGAAAACUCAUGGCCCUTT against Prkag3, the z-score was inactive: 0.0696.
As to GCACUUACCUAACACUAUCTT against Sva, the z-score is inactive: 0.704.
In the case of CGAGAAGGAUAUAAUUGUUTT against Klhl18 it was inactive: 0.449; in that of “GGACGUGAAGUGAAGUCAUTT against 1810009N02Rik”, inactive: -0.626.
For the sequence “CCUCAGGUGUGUUUACAACTT against A230083G16Rik”, the z-score was inactive: 1.94.
For GGUCCACUUAGUGGCUUAATT against Atp5pb, the z-score was inactive: -0.227.
In the case of GGCUUUUGAGCUGGUCUUCTT against Ntn3, the z-score is inactive: -1.2.
For the sequence GCUCCUCACUUAUUGCCCATT against Zfp354b, the z-score was inactive: -0.0805.
Then GCCUGCUUUGGAAAAAUCATT against Akr1c12, with inactive: 0.209.
For GAAGAGAAUGGAGAGAGAGTT against Vpreb2, the z-score is inactive: -0.578.
On to GAGUGUGGAAGGAAGAGGUTT against Orai1, for which the z-score was inactive: 1.82.
In the case of GGAAAGCAGACUUCUAAAGTT against Pdgfc it was inactive: 0.13; in that of UGUCAACUGACUGUAGUAATT against Zmynd12, inactive: 1.66; in that of GGUACAGGCAAUUAAACUUTT against Pds5a, inactive: 1.24.
Take GGACUGUUGUAUUUGUGUGTT against Bmper: the z-score was inactive: -1.14.
On to CCACAAUUACCCAGUAUGATT against Olfr498, for which the z-score is inactive: -0.939.
Regarding GCAUGCGCAUGUCAUUGAATT against Zdhhc1, the z-score is inactive: 1.71.
As to GGUGAAGCUGAAACAACAUTT against Mios, the z-score is inactive: 0.909.
In the case of “GGCUGCAAGCAAAAAUAGATT against 1700029J07Rik”, the z-score is inactive: -0.739.
As for GGAACUGAUGAUGGACCAGTT against Slc4a1, the z-score is active: 3.39.
For the sequence GUUCUGAAAAUAGAAUAAUTT against Vmn1r16, the z-score was inactive: 0.237.
As to GCUUCACUUCUACCCUAGATT against Il18bp, the z-score was inactive: -0.0537.
GCGAAUGAUUGCUUUCAAUTT against Inhbb: the z-score is inactive: -0.714.
In the case of GGCUUUUUUCUGUCCCAAUTT against Clcn6, the z-score is inactive: -1.03.
In the case of GCAUCCACACGGUUAAUCUTT against Tmeff2, the z-score was inactive: 0.508.
Then GGUUGCUGUUUUGAUGACATT against Tff1, with inactive: -0.328; and GGAGGUGAAGUAUUUAGGUTT against Ccm2, with inactive: -0.219; and CGACACUAGUGAUCACUCUTT against Tmem125, with inactive: -1.98.
GGUAAACUUGACAAUAGGATT against Zc3h14: the z-score was inactive: -0.512.
For the sequence CGCUCACUGGUUUUUAAUUTT against Itpripl2, the z-score was inactive: 0.694.
In the case of “GCAUGCAUGCUAUUGUUUUTT against 4931431C16Rik”, the z-score was inactive: 0.336.
For the sequence CCACCUUAACUGUUGCUUUTT against Mmp2, the z-score is inactive: 0.691.
Take GGAGGAAAUGAUGAUUUUCTT against Kbtbd2: the z-score is inactive: 0.283.
Turning to GGAUAAAUGUGCAUCUUAGTT against Aasdhppt, the z-score is inactive: 0.126.
CCAGAGUUUUAUAACGGAATT against Olfr1229: the z-score was inactive: 0.601.
Regarding GCAUCUAGUGACUGUCAAUTT against Sbp, the z-score is inactive: 0.418.
In the case of CCUCCACUUGCCAUAUUGUTT against Inava it was inactive: -1.51.
As for GCAAUUACCUGGUUUAAUGTT against Jmjd6, the z-score was inactive: 1.34.
In the case of GCUACUACACGCAAGAUUUTT against Tex13b it was inactive: -0.901; in that of GGUAUCAGUGAGUGGUACGTT against Tsen15, inactive: -0.56; in that of CGCGCAGUGAAUAGCCUUCTT against Vipas39, inactive: -1.05.
Then GGGUUUUUCAAGAUAAACCTT against Nudt2, with inactive: -1.24.
In the case of “GGUGAGGUUAUUUCAAUACTT against 0610010F05Rik”, the z-score was inactive: -0.618.
As to CCAUUGCUAUCAACACUAATT against Alox5, the z-score is inactive: -0.00402.
In the case of GCUAUCUUGGUGGAUCUAGTT against Tubb5 it was inactive: -0.818; in that of GCAGAAAUUAACAAGUCUCTT against Kif2c, inactive: 0.816.
As for GGCAGAUUUGGGUAAAAUUTT against Eif2s3y, the z-score is inactive: -0.797.
Regarding GGGAAUGUUUUCAAAUUCCTT against Cpa6, the z-score is inactive: 1.07.
Then GGGUUUAUAAAACUGAAGUTT against Cav2, with inactive: 0.672; and CCUGUCACAGAUGUAUGUGTT against Rnf149, with inactive: 0.331; and CGGCUAAAUGCAAGUAAAGTT against Rgma, with inactive: -1.07.
As to GGACACCACGGAGUAUUUUTT against Mgat3, the z-score was inactive: 0.597.
As for GGAUGACAGUGACCAAAGGTT against Prag1, the z-score was inactive: 0.00782.
As for GGUUGUCUUUCAUCGACUCTT against Fbxo5, the z-score was inactive: -0.000863.
For the sequence CCAAUUUCAUACGGCAGUCTT against Slc66a1, the z-score was inactive: 0.574.
CCAGCUAAUCCCAACAUGCTT against Pum1: the z-score was inactive: -1.54.
Consider CCUUGUGUAAGAGGUUUUUTT against Helz, for which the z-score was inactive: 1.88.
As to GGUAAAGGUAAACUUAUACTT against Vmn1r148, the z-score is active: -4.68.
In the case of GCAUCAGGAUUCUGAUAACTT against Mrgpra6, the z-score is inactive: 0.15.
Then GCCUUCUGCUCCGAAGAAGTT against Rpl13, with inactive: -0.444; and CCAUAGAUAUUUACGGAAATT against Slc9a4, with inactive: 0.746; and GGCUGGUAUCUUUCAGAGUTT against Cox6c, with active: 2.2.
CGAGCUAUCCACUUAAUCATT against Irak3: the z-score was inactive: -0.859.
For GGCACUGUGUGUCAGACAATT against Nt5dc1, the z-score is inactive: 1.3.
Turning to CGAUUAGUCUCUCAUUAUUTT against Ipo11, the z-score is inactive: -1.12.
Turning to CCAAGUCGUAAUCUAGAAGTT against Scn7a, the z-score is inactive: 0.191.
With GGACCAAGCUGUUAUUAACTT against Dhodh, the z-score was inactive: 0.46.
In the case of GAUAUUUCCACUCUAGCACTT against Fcrlb it was inactive: -0.404.
CUCCCAAAUGGAAUUGCAUTT against Rc3h1: the z-score was inactive: -1.84.
As to GGAGGGAGAACUCAUCGAATT against Nudt14, the z-score is inactive: -0.583.
As for CGCGAAAUAUGUGUGUUUATT against Nr4a2, the z-score is inactive: 1.21.
In the case of GCCCUAUCUACGAUGAAAATT against Scamp2 it was inactive: -0.197; in that of GCACGAAGAGUUAAUGGAGTT against Aym1, inactive: -0.911; in that of GGGUGGUCAGGAAAAUCAUTT against Notch1, inactive: 0.298.
Then CGAAGACACCGAUAUUUCUTT against Slc10a4, with inactive: 0.906; and UCUUACAAACUAGCUCUCCTT against Crabp2, with inactive: -0.777; and “GCAUGGACAGGUCUAAUUGTT against 9530085L02Rik”, with inactive: -0.415.
GGUCUGGAGCCAGAACUCUTT against Trmt12: the z-score was inactive: 0.754.
As to GCUGUUUGACUACAUAAUCTT against Melk, the z-score is inactive: 0.275.
Then CGCUCAUAGAUGAUGCUCUTT against Wbp1l, with inactive: 1.48; and GGUGCUCCUAUCCUGUUCATT against Lhfp, with inactive: -0.331.
